Results published in patent US20230399388A1.
No constants are given. Whether binding was seen depends on the method and setting. Some results given as binding are weak or reduced against the parent protein; the word gives no strength.

Columns and labels:
…-biotin (mouse) = target: T1, …-biotin (mouse); experiment: Biacore kinetic studies
T1 sequence (peptide, C-terminal biotin): RRPPGFSPFR

…-biotin [1] = target: T2, …-biotin; experiment: Biacore kinetic studies
T2 sequence (peptide, C-terminal biotin): KRPPGFSPF

…-biotin [2] = target: T2, …-biotin; experiment: Biacore, biotin-peptide on SA chip
RPPGFSPF-biotin = target: T3, RPPGFSPF-biotin; experiment: ELISA, biotin-peptide on streptavidin plate
T3 sequence (peptide, C-terminal biotin): RPPGFSPF

biotin-RPPGFSPF = target: T4, biotin-RPPGFSPF; experiment: ELISA, biotin-peptide on streptavidin plate
T4 sequence (peptide, N-terminal biotin): RPPGFSPF

[3] = target: T5, biotin-…; experiment: ELISA, biotin-peptide on streptavidin plate
T5 sequence (peptide, N-terminal biotin): KRPPGFSPF

…-biotin [4] = target: T2, …-biotin; experiment: ELISA, biotin-peptide on streptavidin plate

Measured: binding

B1: I22 (antibody, V domains shown)
VH: EVQLQQSGAELVRSGASVKLSCTASGFNIKDYYMHWVKQRPEQGLEWIGWVDPENGDSDYAPKFQGKATMTADTSSNTVYLQFSSLTSEDTAVYYCNAFEYDGNYSPLDFWGQGTSVTVSS
VL: DIVMTQSPSSLSVSAGEKVTMSCKSSQSLLNSGNQKNYLAWYQQKPGQPPKLLIYGASTRESGVPDRFTGSGSGTDFTLTISSVQAEDLAVYYCQNDHSYPLTFGAGTKLELK
binds: …-biotin (mouse) | …-biotin [1] | …-biotin [2] | RPPGFSPF-biotin | biotin-RPPGFSPF | [3] | …-biotin [4]
